PubChem BioAssay AID1259254 – NCATS | 2017

- Test: 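Genome-wide screen for genes that prevent DNA re-replication in cancer cells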 (primary screen)
- Cells: human HCT116 colorectal cancer cells
- Reagents: single siRNA against human genes
- Duration: 3 days
- Detection: 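Nuclei stained with Hoechst and imaged; cell-cycle phase assigned by DNA content; G2 share scaled per plate, non-targeting siRNA 0%, GMNN siRNA 100%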
- Direction: G2 robust z-score and G2 cells, % of GMNN control: higher = more G2 cells, more excess DNA replication; raw share of cells in G2: higher = larger share of cells with G2 DNA content
- Rule for the call: 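An siRNA counts as active if its G2 robust z-score lies at least 5 MADs above the screen median; here such calls match roughly 38% of GMNN control or more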
Shown is a random part of about 59,000 deposited reagents. In the full data, about 1,550 (2.6%) were called active. 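G2 share is only a proxy for re-replication; each gene was hit by three separate siRNAs, and active genes were retested.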 Raw values vary from plate to plate and are shown uncorrected. A number with no mark means an inactive call. Reagents against one gene are numbered here. Not given: the amount of reagent.

target gene	siRNA no.	G2 robust z-score	G2 cells, % of GMNN control	raw share of cells in G2 (%)
NHSL2	1	-0.275	1.04	4.34
NHSL2	2	1.87	16.1	10.3
NHSL2	3	-0.597	-1.23	3.69
NHSL2	4	0.205	4.41	5.41
NHSL2	5	-0.935	-3.61	2.08
NHSL2	6	-0.88	-3.23	3.45
TNFRSF1A	1	4.12	32	16.9
TNFRSF1A	2	-0.229	1.36	5.24
TNFRSF1A	3	0.628	7.39	7.26
TRIM33	1	-0.596	-1.23	3.79
TRIM33	2	-0.831	-2.88	2.7
TRIM33	3	1.48	13.4	12
ETFA	1	-0.475	-0.376	3.52
ETFA	2	1.38	12.7	10.1
ETFA	3	3.29	26.1	14.7
TM4SF19	1	-0.963	-3.81	2.57
TM4SF19	2	-1.05	-4.42	2.01
TM4SF19	3	0.571	6.99	3.86
PRR15L	1	-0.0942	2.3	3.31
PRR15L	2	-0.572	-1.06	4.12
PRR15L	3	2.17	18.2	12.8
SUDS3	1	2.5	20.5	13.5
SUDS3	2	0.416	5.9	7.25
SUDS3	3	0.929	9.5	5.21
OCSTAMP	1	2.18	18.3	9.22
OCSTAMP	2	-0.125	2.09	4.96
OCSTAMP	3	-0.188	1.65	3.62
SLC28A1	1	-0.992	-4.01	3.27
SLC28A1	2	-1.03	-4.28	2.6
SLC28A1	3	-0.427	-0.0343	5.25
EED	1	-0.182	1.68	5.88
EED	2	1.38	12.7	8.91
EED	3	-0.43	-0.0567	3.33
GTF2F2	1	-0.714	-2.06	3.45
GTF2F2	2	-0.0928	2.31	6.56
GTF2F2	3	-0.905	-3.4	3.81
AURKB	1	13.6 (active)	98.4	36.2
AURKB	2	9.73 (active)	71.4	31.2
AURKB	3	5.77 (active)	43.6	17.6
EPS8L2	1	4.5	34.7	16.6
EPS8L2	2	2.98	23.9	12.9
EPS8L2	3	-1.3	-6.15	3.1
SH3BP5L	1	-1.09	-4.69	2.5
SH3BP5L	2	-0.263	1.12	4.79
SH3BP5L	3	1.02	10.2	5.15
TMA7	1	-0.517	-0.673	2.97
TMA7	2	0.304	5.11	5.43
TMA7	3	0.651	7.55	7.45

Records above called active, once more:
target gene	siRNA no.	G2 robust z-score	G2 cells, % of GMNN control	raw share of cells in G2 (%)
AURKB	1	13.6 (active)	98.4	36.2
AURKB	2	9.73 (active)	71.4	31.2
AURKB	3	5.77 (active)	43.6	17.6
